This note sets out measurements from publication PMC8763653.

Protein sequences, listed by entry. Tags and fused reporters are not part of them. Lines headed by an entry give the natural chain unless they say otherwise; changes in a name come on top. Chains listed by the source or under a name are the forms on record and can include a tag or linker. Residues count along the entry.
UniProt Q14627, residues 27-380: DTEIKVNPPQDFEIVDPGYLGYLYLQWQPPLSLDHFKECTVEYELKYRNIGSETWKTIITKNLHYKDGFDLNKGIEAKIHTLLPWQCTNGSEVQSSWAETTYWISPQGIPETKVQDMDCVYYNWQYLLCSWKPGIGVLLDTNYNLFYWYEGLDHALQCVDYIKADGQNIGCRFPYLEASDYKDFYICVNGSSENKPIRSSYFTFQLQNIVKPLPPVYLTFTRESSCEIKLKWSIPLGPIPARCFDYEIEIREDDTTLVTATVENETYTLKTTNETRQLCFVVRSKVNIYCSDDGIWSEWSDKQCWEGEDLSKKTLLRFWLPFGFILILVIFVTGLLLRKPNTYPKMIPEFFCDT
6×Myc‐tagged human CHI3L1 (chitinase 3 like1), full length (P36222, residues 22-383): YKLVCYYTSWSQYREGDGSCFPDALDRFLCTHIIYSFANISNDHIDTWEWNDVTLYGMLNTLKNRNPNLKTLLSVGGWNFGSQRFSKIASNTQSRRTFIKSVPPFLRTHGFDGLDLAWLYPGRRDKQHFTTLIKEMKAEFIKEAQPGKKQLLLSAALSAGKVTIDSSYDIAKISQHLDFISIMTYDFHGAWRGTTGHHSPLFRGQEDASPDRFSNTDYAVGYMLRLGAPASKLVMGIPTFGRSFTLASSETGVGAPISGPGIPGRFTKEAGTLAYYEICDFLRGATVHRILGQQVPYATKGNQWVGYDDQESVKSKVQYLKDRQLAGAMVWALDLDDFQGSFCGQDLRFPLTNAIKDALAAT
6×Myc‐tagged human CHI3L1 Δ278‐294 (P36222, form named): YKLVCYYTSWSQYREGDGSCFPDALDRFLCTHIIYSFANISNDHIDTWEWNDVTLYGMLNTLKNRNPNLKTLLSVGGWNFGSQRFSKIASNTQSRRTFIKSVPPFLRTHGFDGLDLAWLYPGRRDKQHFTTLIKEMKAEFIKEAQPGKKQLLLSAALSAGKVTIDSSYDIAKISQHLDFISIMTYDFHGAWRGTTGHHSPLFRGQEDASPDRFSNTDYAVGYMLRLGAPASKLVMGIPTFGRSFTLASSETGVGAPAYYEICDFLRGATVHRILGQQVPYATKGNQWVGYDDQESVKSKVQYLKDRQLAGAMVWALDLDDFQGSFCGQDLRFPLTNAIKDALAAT

No constants are given. Whether binding was seen depends on the method and setting. Binding seen in cells or lysates may run through a third protein. Some entries that bind do so weakly or less than the wild type.

In test [1] the target is T1, IL‐13Rα1 (human (endogenous in A549)) (UniProt P78552).
T1 sequence: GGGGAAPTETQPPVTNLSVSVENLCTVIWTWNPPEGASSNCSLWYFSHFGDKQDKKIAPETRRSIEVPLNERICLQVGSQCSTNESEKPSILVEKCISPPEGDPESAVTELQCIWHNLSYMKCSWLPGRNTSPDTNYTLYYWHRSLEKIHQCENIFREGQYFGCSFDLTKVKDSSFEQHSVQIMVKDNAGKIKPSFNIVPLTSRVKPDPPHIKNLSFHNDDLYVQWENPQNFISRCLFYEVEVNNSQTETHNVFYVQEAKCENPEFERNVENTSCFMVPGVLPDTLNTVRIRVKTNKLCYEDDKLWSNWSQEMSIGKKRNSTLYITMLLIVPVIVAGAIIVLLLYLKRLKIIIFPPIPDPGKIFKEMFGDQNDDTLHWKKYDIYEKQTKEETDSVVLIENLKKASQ
In words: co-IP; A549 cells transfected with FL or Δ278‐294 CHI3L1‐6×Myc, with or without 5 μM K284 for 24 h; immunoprecipitation with anti‐IL‐13Rα1 IgG or anti‐IL‐13Rα2 IgG, blot with anti‐Myc IgG; NET‐NL lysis buffer (50 mM Tris pH 7.5, 5 mM EDTA, 150 mM NaCl, 1 mM DTT, 0.01% NP‐40), 4 °C overnight.

Test [2] deals with interleukin‐13 receptor subunit alpha‐2 (IL‐13Rα2) (human (endogenous in A549)) (UniProt Q14627). The description is as above.

As to “6×Myc‐tagged human CHI3L1 (chitinase 3 like1), full length (from UniProt P36222 22-383)”, the binding result in test [1] is recorded as “binds”.

For the substance “6×Myc‐tagged human CHI3L1 Δ278‐294 (from UniProt P36222 22-383)”, the binding result in test [2] is recorded as “binds”.
